PubChem BioAssay AID1159578 | Peter MacCallum Cancer Centre, 2015
Shown is an unselected part of about 18,000 deposited reagents. About 1,030 of all reagents (5.7%) count as active. 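Inactive calls also include pools with fewer than 3300 nuclei, whose migration was not assessed.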 Raw values vary from plate to plate and are shown uncorrected. Unmarked entries are inactive. The numbers tell different reagents against one gene apart. Further read-outs or replicates are left out here.

Assay: 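Genome-wide hunt for genes controlling movement of lymphatic endothelial cells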 (primary screen)
Cell system: human lymphatic endothelial cells
Reagent: siRNA pool against human genes, 40 nM
Timing: 48 h after transfection
Read-out: 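Cells stained with dye and imaged after a scratch; covered wound area and nuclei counted, duplicates averaged, migration set against mock wells and turned into a robust z-score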
Reading the numbers: migration robust z-score: higher = faster migration into the scratch; nuclei per well: higher = more cells in the well
Rule for the call: 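Pools averaging fewer than 3300 nuclei are never called; remaining pools count as changed when migration robust z lies outside -2 to 2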
Meaning of the calls: active = migration changed; inactive = no migration change, or too few cells

For RHOBTB1 (Rho related BTB domain containing 1) the deposit lists migration robust z-score -0.52; nuclei per well, duplicate mean 4750.
Silencing of THSD1 (thrombospondin type 1 domain containing 1) resulted in: migration robust z-score 0.21; nuclei per well, duplicate mean 5816.
Against DPY19L2 (dpy-19 like 2) the deposit lists migration robust z-score 1.34; nuclei per well, duplicate mean 5666.
Knock-down of AMOTL1 (angiomotin like 1) gave: migration robust z-score 0.48; nuclei per well, duplicate mean 5718.
Silencing of NAIF1 (nuclear apoptosis inducing factor 1) gave: migration robust z-score -1.21; nuclei per well, duplicate mean 6300.
After knock-down of CERK (ceramide kinase) the results were migration robust z-score -0.57; nuclei per well, duplicate mean 4525.
NFE2L2 (NFE2 like bZIP transcription factor 2) showed migration robust z-score 0.9; nuclei per well, duplicate mean 5214.
After knock-down of MRPS30 (mitochondrial ribosomal protein S30), the record shows migration robust z-score 0.62; nuclei per well, duplicate mean 5546.
LDHD (lactate dehydrogenase D) scored migration robust z-score 0.06; nuclei per well, duplicate mean 5561.
MRC1 (mannose receptor C-type 1) #1 showed migration robust z-score -0.55; nuclei per well, duplicate mean 6240.
With knock-down of MRC1 (mannose receptor C-type 1) #2, the record shows migration robust z-score 1.08; nuclei per well, duplicate mean 5927.
With knock-down of SF3B4 (splicing factor 3b subunit 4), the screen gave migration robust z-score 1.32; nuclei per well, duplicate mean 5490.

Entries listed so far whose target name begins with M or m:
MRPS30 (mitochondrial ribosomal protein S30) — migration robust z-score = 0.62; nuclei per well, duplicate mean = 5546
MRC1 (mannose receptor C-type 1) #1 — migration robust z-score = -0.55; nuclei per well, duplicate mean = 6240
MRC1 (mannose receptor C-type 1) #2 — migration robust z-score = 1.08; nuclei per well, duplicate mean = 5927
